Several values for one entry are separate records, joined by “and”; a condition that tells them apart may be missing. Equal entries are not always repeated. Some of the results follow. This data set is noisy: repeats of one test often differ as much as different tests do.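 Flies heterozygous for the ATM8 allele over a balancer chromosome carrying normal ATM were mated with each other on treated food. Parents laid eggs for 5–6 days and the young then developed for about 12 days, so both parents and larvae ate the compound. The read-out is the share of all emerged adults that carry two ATM8 copies, compared with 2% DMSO control vials. The paper called compounds neutral at 10–20% such offspring, harmful below 10%, and helpful above 20%.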

This assay deals with Drosophila melanogaster ATM8 (temperature-sensitive ATM allele). As to the kind of experiment: fraction of eclosed F1 progeny that are homozygous ATM8 (rescue of developmental lethality); higher = more rescue of ATM8 developmental lethality; extreme values may be limits of the assay. As to conditions: compound concentration applied to food 0.2 mM; 21 °C.
With `COc1cc(O)cc(OC)c1OC`, the “fraction of eclosed F1 progeny that are homozygous ATM8” value (“fraction” for short) is 0.0294. Then `COC(=O)/C=C/C(=O)OC`, with 0.143; and `COC(=O)[C@H]1[C@H]2C[C@H]3c4[nH]c5cc(OC)ccc5c4CCN3C[C@H]2C[C@@H](OC(=O)c2cc(OC)c(OC)c(OC)c2)[C@@H]1OC`, with 0.146; and `C[N+](C)(C)CCOC(N)=O`, with 0.129.

For the molecule `CC(C)(C)NC[C@H](O)COc1cccc2c1CCCC2=O`, the “fraction” value was found to be 0.286. With `CCOC(=O)C1=C(C)NC(C)=C(C(=O)OC)C1c1cccc(Cl)c1Cl` (stereo unspecified), the “fraction” value was 0.145. Turning to `C[C@]12CC[C@H](O)C[C@H]1CC[C@@H]1[C@@H]2CC[C@]2(C)[C@@H](C3=CC(=O)OC3)[C@@H](O)C[C@]12O`, the “fraction” value was 0.093. Then `CC(=O)O[C@H]1C[C@@H]2CC[C@@H]3[C@H](CC[C@@]4(C)[C@H]3C[C@H]([N+]3(C)CCCCC3)[C@@H]4OC(C)=O)[C@@]2(C)C[C@@H]1[N+]1(C)CCCCC1`, with 0.02.

In the case of `O=C1c2c(O)ccc(O)c2C(=O)c2c(NCCNCCO)ccc(NCCNCCO)c21`, the “fraction” value was 0.0448. Take `C[C@H]1[C@H](C)CC[C@]2(C(=O)O)CC[C@]3(C)C(=CC[C@@H]4[C@@]5(C)C[C@@H](O)[C@H](O)[C@@](C)(CO)[C@@H]5[C@H](O)C[C@]43C)[C@H]12`: the “fraction” value was determined as 0.103. Regarding `COc1ccc(-c2coc3cc(O)ccc3c2=O)c(OC)c1`, the “fraction” value worked out at 0.263. `N[C@@H](Cc1ccc(O)c(O)c1)C(=O)O`: the “fraction” value worked out at 0.211. On to `CCSCC[C@H](N)C(=O)O`, for which the “fraction” value is 0.0588. As to `CCC(C)C(NC)C(=O)O` (stereo unspecified), the “fraction” value was determined as 0.286. Consider `CN(C)CCc1c[nH]c2ccc(CS(=O)(=O)N3CCCC3)cc12`, for which the “fraction” value was found to be 0.277. In the case of `O=C(O)c1cc(=O)c2ccccc2[nH]1` it was 0.116; in that of `CCCCCCCCCCCC[C@@H](C(=O)O)[C@H](C)C(=O)O`, 0.25. Take `CSCC[C@H](NC(=O)[C@H](Cc1c[nH]c2ccccc12)NC(=O)CCNC(=O)OC(C)(C)C)C(=O)N[C@@H](CC(=O)O)C(=O)N[C@@H](Cc1ccccc1)C(N)=O`: the “fraction” value worked out at 0.0952. With `CC(C)NNC(=O)c1ccncc1`, the “fraction” value was found to be 0.17. Take `O=C1c2cccc(O)c2C(=O)c2c(O)cccc21`: the “fraction” value stood at 0.0833. In the case of `CCOC(N)=O` it was 0.123; in that of `CCN(CC)CCNC(=O)c1cc(Br)c(N)cc1OC`, 0.244.

In the case of `OC(CCN1CCCCC1)(c1ccccc1)c1ccccc1`, the “fraction” value was found to be 0.093.

Turning to `C[C@H]1C(=O)CC[C@@H]2[C@]1(C)CC[C@H]1[C@@]2(C)CC[C@@]2(C)[C@@H]3CC(C)(C)CC[C@]3(C)CC[C@]12C`, the “fraction” value is 0.17. Take `CCCCC(=O)N(Cc1ccc(-c2ccccc2-c2nnn[nH]2)cc1)[C@H](C(=O)O)C(C)C`: the “fraction” value came out at 0.205. In the case of `CC[C@@H](CO)NC(=O)[C@@H]1C=C2c3cccc4c3c(cn4C)C[C@H]2N(C)C1` it was 0.0263; in that of `N#C[C@H](O[C@@H]1O[C@H](CO[C@@H]2O[C@H](CO)[C@@H](O)[C@H](O)[C@H]2O)[C@@H](O)[C@H](O)[C@H]1O)c1ccccc1`, 0.208; in that of `O=C(c1ccc(OCCN2CCCCC2)cc1)c1c(-c2ccc(O)cc2)sc2cc(O)ccc12`, 0.0385. On to `COc1cc2c(c(OC)c1OC)-c1ccc(OC)c(=O)cc1[C@@H](NC(C)=O)CC2`, for which the “fraction” value was determined as 0.111. In the case of `C=C1[C@H]2CC[C@@]3(C)[C@H](c4ccoc4)OC(=O)C[C@]13O[C@H]1C[C@H](O)C(C)(C)[C@H](CC(=O)OC)[C@]12C` [3-DEOXY-3beta-HYDROXYANGOLENSIC ACID METHYL ESTER], the “fraction” value turned out to be 0.132. On to `CC(CN1c2ccccc2Sc2ccccc21)N(C)C` (stereo unspecified), for which the “fraction” value worked out at 0.196. In the case of `NS(=O)(=O)c1cc2c(cc1C(F)(F)F)NC(Cc1ccccc1)NS2(=O)=O` (stereo unspecified) it was 0.0797. As for `CC[C@@]1([C@H]2O[C@H]([C@H]3O[C@@](O)(CO)[C@H](C)C[C@@H]3C)C[C@H]2C)CC[C@H]([C@@]2(C)CC[C@]3(C[C@H](O)[C@@H](C)[C@@H]([C@H](C)[C@H](OC)[C@@H](C)C(=O)O)O3)O2)O1`, the “fraction” value turned out to be 0. `CC1(C)S[C@@H]2[C@H](N3C(=O)[C@@H](c4ccccc4)NC3(C)C)C(=O)N2[C@H]1C(=O)O`: the “fraction” value amounted to 0.158. In the case of `CCOC(=O)C1=C(C)NC(C)=C(C(=O)OC)C1c1cccc([N+](=O)[O-])c1` (stereo unspecified) it was 0.0702. As for `CC(=O)O[C@H]1C[C@@H](OC(C)=O)C(C)(C)C2CC(=O)[C@]3(C)C(CC[C@@]4(C)[C@H](C(=O)O)OC(=O)C5OC543)[C@]21C` (stereo partly specified), the “fraction” value amounted to 0.0862. In the case of `CCCCCCCCCCCCCCCCC(C(=O)O)C(O)(CC(=O)O)C(=O)O` (stereo unspecified) it was 0.25; in that of `COC(=O)c1c(C)cc(OC(=O)c2c(C)cc(O)c(CO)c2O)c(C)c1O`, 0.25. For the molecule `C[C@]12CC[C@H](O)CC1=CC[C@@H]1[C@@H]2CC[C@]2(C)C(=O)CC[C@@H]12`, the “fraction” value worked out at 0.093. For the molecule `CCn1cc(C(=O)O)c(=O)c2cc(F)c(N3CCNCC3)cc21`, the “fraction” value came to 0.244. In the case of `O=c1c(O)c(-c2ccc(O)c(O)c2)oc2c(O[C@@H]3O[C@H](CO)[C@@H](O)[C@H](O)[C@H]3O)c(O)cc(O)c12` it was 0.233; in that of `COc1ccc(-n2nc(C(N)=O)c3c2C(=O)N(c2ccc(N4CCCCC4=O)cc2)CC3)cc1`, 0.256. `COc1ccc(C(C)=O)c(O)c1`: the “fraction” value was 0.0769.

As to `CC(=O)Oc1cccc(C(=O)O)c1OC(C)=O`, the “fraction” value stood at 0.0455.

With `COc1c(O)cc2c(c1O)[C@@H]1O[C@H](CO)[C@@H](O)[C@H](O)[C@H]1OC2=O`, the “fraction” value came out at 0.122. In the case of `CC(C)[C@H]1CC[C@H](C(=O)N[C@H](Cc2ccccc2)C(=O)O)CC1` it was 0.294. Then `COC(=O)/C(=C1/OC(=O)C(c2ccccc2)=C1O)c1ccccc1`, with 0.36.

In the case of `CC1C=CC=CCCC=CC=CC=CC=CC(OC2OC(C)C(O)C(N)C2O)CC2OC(O)(CC(O)C(O)CCC(O)CC(O)CC(O)CC(=O)OC(C)C(C)C1O)CC(O)C2C(=O)O` (stereo unspecified), the “fraction” value was found to be 0.214. In the case of `COc1ccccc1OCCNCC(O)COc1cccc2[nH]c3ccccc3c12` (stereo unspecified) it was 0.279 and 0.407; in that of `CC(C)c1nc(CN(C)C(=O)N[C@H](C(=O)N[C@@H](Cc2ccccc2)C[C@H](O)[C@H](Cc2ccccc2)NC(=O)OCc2cncs2)C(C)C)cs1`, 0.0256.

Consider `CC1CCc2cc(F)cc3c(=O)c(C(=O)O)cn1c23` (stereo unspecified), for which the “fraction” value was determined as 0.194.

As to `COc1cc2c(cc1OC)-c1c(oc3cc(O)cc(O)c3c1=O)CO2`, the “fraction” value stood at 0.205. Take `CCCCOc1ccc(OCCCN2CCOCC2)cc1`: the “fraction” value is 0.194. In the case of `C[C@@H]1C[C@H](O)[C@@]2(O)[C@]13CC(=O)OC[C@@]2(C)[C@@](C)(O)C(=O)C3` it was 0.104; in that of `CC(C)[C@@H]1CC[C@@H](C)C[C@H]1OC(=O)c1ccccc1`, 0.212.

`S=P(N1CC1)(N1CC1)N1CC1`: the “fraction” value was 0.075. Turning to `CC(=O)O[C@H]1CC[C@@]2(C)[C@H](CC[C@@H]3[C@@H]2CC[C@]2(C)[C@@H](C4=CC(=O)OC4)[C@@H](OC(C)=O)C[C@]32O)C1`, the “fraction” value worked out at 0.0769.

For `CC(=O)O[C@H]1CC[C@]2(C)[C@H]3CC=C4[C@@H]5CC(C)(C)CC[C@]5(C(=O)O)CC[C@@]4(C)[C@]3(C)CC[C@H]2C1(C)C`, the “fraction” value was found to be 0.194. As to `CC(C)(C)NCC(O)c1ccc(O)c(CO)c1` (stereo unspecified), the “fraction” value came to 0.0625.

Regarding `O=C([O-])C(O)[C@H](O)[C@@H](O)[C@H](O)[C@H](O)CO.O=C([O-])C(O)[C@H](O)[C@@H](O)[C@H](O)[C@H](O)CO.[Ca+2]` (stereo partly specified), the “fraction” value worked out at 0.154. For the molecule `O=C(/C=C/c1ccccc1)c1ccc(O)cc1O`, the “fraction” value amounted to 0.286.

`Cc1c(OCC(F)(F)F)ccnc1C[S+]([O-])c1nc2ccccc2[nH]1` (stereo unspecified): the “fraction” value stood at 0.0339. With `CC[N+]1(C)CCCC(OC(=O)C(O)(c2ccccc2)c2ccccc2)C1` (stereo unspecified), the “fraction” value was found to be 0.0789. With `Nc1nc(=O)c2c([nH]1)NCC(CNc1ccc(C(=O)N[C@@H](CCC(=O)O)C(=O)O)cc1)=N2`, the “fraction” value was found to be 0.184. In the case of `COC(=O)Nc1nc2cc(C(=O)c3ccc(F)cc3)ccc2[nH]1` it was 0.192; in that of `CC1=C2C(=CO[C@H](C)[C@H]2C)C(O)=C(C(=O)O)C1=O`, 0.231.

Regarding `COc1ccc(-c2cc(=O)c3c(O)cc(OC)c(OC)c3o2)c(OC)c1`, the “fraction” value came out at 0. For `CCOC(=O)c1ccc(O)cc1`, the “fraction” value amounted to 0.154. Regarding `COc1ccc2cc1Oc1ccc(cc1)C[C@H]1c3c(cc4c(c3Oc3cc5c(cc3OC)CCN(C)[C@@H]5C2)OCO4)CCN1C`, the “fraction” value was 0.114.

On to `CC(O)CC(C)(C)O` (stereo unspecified), for which the “fraction” value came out at 0.109.

For `O=C(O)c1ccccc1Nc1cccc(OCc2ccc3ccccc3n2)c1`, the “fraction” value was determined as 0.0833.

`COC1=C(OC)C(=O)C(C/C=C(\C)CC/C=C(\C)CC/C=C(\C)CC/C=C(\C)CC/C=C(\C)CC/C=C(\C)CC/C=C(\C)CC/C=C(\C)CC/C=C(\C)CCC=C(C)C)=C(C)C1=O`: the “fraction” value was determined as 0.25. Turning to `Cn1c(=O)c2[nH]c(Br)nc2n(C)c1=O`, the “fraction” value turned out to be 0.174. Then `OCC(O)CN1CCN(c2ccccc2)CC1` (stereo unspecified), with 0.214.

With `COc1cc2c(cc1OC)C(=O)OC2`, the “fraction” value was 0.121.

Take `c1ccc2c(c1)OCC(C1=NCCN1)O2` (stereo unspecified): the “fraction” value came to 0.0588.

On to `COc1cc(N)c(Cl)cc1C(=O)NC1CCN(CCCOc2ccc(F)cc2)CC1OC` (stereo unspecified), for which the “fraction” value turned out to be 0.0541. As to `COC1=CC(=O)C[C@@H](C)[C@]12Oc1c(Cl)c(OC)cc(OC)c1C2=O`, the “fraction” value stood at 0.176. Take `CC[C@H](/C=C/[C@@H](C)[C@H]1CC[C@H]2[C@@H]3CCC4=CC(=O)CC[C@]4(C)[C@H]3CC[C@]12C)C(C)C`: the “fraction” value was determined as 0.293. Consider `COc1c2c(cc3occ(-c4ccc5c(c4)OCO5)c(=O)c13)OC(C)(C)C=C2`, for which the “fraction” value worked out at 0.0316. In the case of `N#Cc1c(Cl)c(Cl)c(Cl)c(C#N)c1Cl`, the “fraction” value came out at 0.0357.

On to `COc1ccc(-c2coc3cc(O)cc(O)c3c2=O)cc1`, for which the “fraction” value worked out at 0.0244. `CCCC(CCC)C(=O)O`: the “fraction” value worked out at 0.136. Take `Cc1onc(-c2ccccc2)c1C(=O)N[C@@H]1C(=O)N2[C@@H]1SC(C)(C)[C@@H]2C(=O)O`: the “fraction” value was determined as 0.196. In the case of `Cc1cc(CC(C)CC(C)(C)C)n(O)c(=O)c1` (stereo unspecified) it was 0.104; in that of `COc1c(OC)c2occc2c2oc(=O)ccc12`, 0.0541; in that of `CCCC(C(=O)OCCN(CC)CC)(c1ccccc1)c1ccccc1`, 0.0476. As for `CN1CCC[C@H]1c1cccnc1`, the “fraction” value stood at 0.0702. As for `O=S(=O)(O)CCSSCCS(=O)(=O)O`, the “fraction” value is 0.104. Turning to `CO/N=C1\CN(c2nc3c(cc2F)c(=O)c(C(=O)O)cn3C2CC2)CC1CN` (stereo unspecified), the “fraction” value was 0.0513. Then `N[C@H](CO)Cc1ccccc1`, with 0.

Values taken from the supplement of paper PMC5770031.
